Experimental data taken from patent US20100261710A1, “HDAC Inhibitors” (ARQULE, INC., priority 2007, published 2010).

System: HDACs (nuclear HeLa extract)
Experiment: pan-HDAC fluorescent biochemical assay with nuclear HeLa extract
Conditions: HDAC peptide substrate, 60 min at 37° C.
Experimental: Substrate was synthesized in house. Stocks were prepared in DMSO (10 mM).
Compound working solution: Compounds dissolved in assay buffer at 4× Screening concentration. Activator solution: Trypsin (10 mg/mL) diluted 1:1600 in Assay Buffer containing 4 μM TSA.
Total reaction Volume: 40 μL
Reaction was allowed to run for 60 minutes at 37° C.
2. Combine in a white ½ area well plate: 10 μl of 4× compound (or buffer), 15 μl of substrate and 15 μl of HeLa extract. Mix well
3. Incubate at 37° C. for 60 min.
4. Prepare Activator solution. Dilute Trypsin 1:1600 in Assay Buffer+4μM TSA. 20 μl is needed per assay point.
5. Add 20 μl of prepared activator solution and mix thoroughly.
The hydroxamic-acid based compounds of the present invention were tested in the biochemical assay for their pan-HDAC inhibitory activity.

CC(=O)CCCCCNC(=O)c1cn2c3c(cccc13)CCC2 [compound 17, N-(6-oxoheptyl)-5,6-dihydro-4H-pyrrolo[3,2,1-ij]quinoline-1-carboxamide]
IC50: 10 µM
